Mtb heat-shock: 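Assay on Mycobacterium tuberculosis, filed only as a heat shock assay from Cornell; the read-out is not stated. The concentration is filed as 10 mM, unlikely as a test dose, so the dose is not known. Higher reads as stronger inhibition (inferred: compounds with an IC50 in retests scored well above the rest). Of about 69,000 compounds tested this way, about 930 (1.4%) reached 50% or more in at least one test.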
Mtb growth Cornell: 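Whole-cell assay for inhibitors of Mycobacterium tuberculosis growth, labelled Cornell in the record; the read-out is not stated. The concentration is filed as 10 mM, unlikely as a test dose, so the dose is not known. The record gives no direction; compounds strong in two other growth screens of this library score well above the rest, so higher reads as stronger inhibition. Of about 53,000 compounds tested this way, about 900 (1.7%) reached 50% or more in at least one test.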
LdMetRS: 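Primary screen of methionyl-tRNA synthetase; the read-out is not stated. Target: Methionyl-tRNA synthetase (putative), Leishmania donovani (UniProt E9BF75). The test concentration is not given. The values are filed as inhibition. About 68,000 compounds were tested under these conditions; 0.035% (about 24) showed 50% or more at least once.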

By UniProt entry, the sequences of proteins in these tests, tags left out.
UniProt E9BF75, entry or part of it: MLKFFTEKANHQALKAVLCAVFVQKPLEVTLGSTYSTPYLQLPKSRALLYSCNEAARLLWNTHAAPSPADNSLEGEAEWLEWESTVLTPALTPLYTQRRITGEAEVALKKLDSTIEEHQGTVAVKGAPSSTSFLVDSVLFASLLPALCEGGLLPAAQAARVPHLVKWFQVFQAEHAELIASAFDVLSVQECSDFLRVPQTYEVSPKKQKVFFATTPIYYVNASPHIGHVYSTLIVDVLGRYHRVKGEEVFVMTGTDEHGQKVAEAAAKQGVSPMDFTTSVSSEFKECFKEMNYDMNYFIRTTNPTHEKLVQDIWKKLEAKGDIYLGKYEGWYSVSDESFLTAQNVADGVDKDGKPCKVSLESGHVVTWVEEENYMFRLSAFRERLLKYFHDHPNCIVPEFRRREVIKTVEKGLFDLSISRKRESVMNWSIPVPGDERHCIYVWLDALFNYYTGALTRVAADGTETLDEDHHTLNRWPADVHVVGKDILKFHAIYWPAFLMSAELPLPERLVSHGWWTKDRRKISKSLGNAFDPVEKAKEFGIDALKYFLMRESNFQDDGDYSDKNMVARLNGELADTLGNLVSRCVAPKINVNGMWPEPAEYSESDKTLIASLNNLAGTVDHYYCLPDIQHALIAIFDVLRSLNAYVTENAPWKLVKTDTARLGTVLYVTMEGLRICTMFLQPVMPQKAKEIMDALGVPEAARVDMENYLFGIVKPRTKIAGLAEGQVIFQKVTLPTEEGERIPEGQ

All values are in %. How 0% and 100% were set is not recorded. Most values in the screen are low, and negative values occur. The compounds are a random part of those screened. Two or more numbers in one place are separate tests of the same structure; such repeats can differ widely. A dash means the value is not listed here; it may have been measured.

With CC(C)c1cc(NCC2(CO)CCCC2)ncn1 the screen gave Mtb heat-shock: -29.4%; Mtb growth Cornell: 29.02%; LdMetRS: 16.49%. Cc1ncsc1CN1C[C@H](C(=O)NC2CCCC2)[C@@H]2CCO[C@@H]2C1 gave LdMetRS: 14.38%. Result for O=C(O)C(F)(F)F.O=C(O)C(F)(F)F.[H][C@@]12CN(Cc3ccncc3)C[C@]1([H])[C@@H]2CC(=O)N1CCCC1 was Mtb heat-shock: -28.62%. With CNC(=O)NC(=O)CCSc1ccccc1Cl the screen gave Mtb heat-shock: 5.292%; Mtb growth Cornell: -10.4%; LdMetRS: 5.484%. Result for CC(=O)N1CCCN(C(=O)c2ccc(=O)n(C)c2)c2ccccc21 was Mtb heat-shock: 2.673%; LdMetRS: 15.08%. For CS(=O)(=O)NCc1ncn2c1CN(Cc1cccs1)CCC2 the result was LdMetRS: 7.333%. For Cc1cc(C(=O)N2CC[C@@H]3CN(C)S(=O)(=O)[C@@H]3CC2)no1 the result was LdMetRS: 14.57%. O=C(O)C(F)(F)F.O=C(O)C(F)(F)F.c1cnc(N2CCCC3(CCN(c4ncccn4)C3)C2)nc1 (stereo not shown) gave Mtb heat-shock: -12.43%; Mtb growth Cornell: -25.14%.

For O=C(Nc1ccccc1)C1CCN(C(=O)COc2ccccc2F)CC1 the result was Mtb heat-shock: -3.389%; LdMetRS: -3.846%. Cc1nc(C)n(CC2CCCN(c3ncnc4[nH]ccc34)C2)n1 (stereo not shown) gave Mtb heat-shock: -3.383%; LdMetRS: 14.58%. With CN1CCC(N(C)c2ccccc2CNCc2ccco2)CC1 the screen gave Mtb heat-shock: -30.46%; Mtb growth Cornell: -21.06%; LdMetRS: 8.065%. For CC1=Nc2c(c(=O)[nH]n2C(C)C)C(c2ccsc2)S1 (stereo not shown) the result was Mtb heat-shock: 12.4% and -5.974%; Mtb growth Cornell: 24.79%; LdMetRS: 20.91% and 12%. With O=C(C1CCCOC1)N1CCCc2ccccc21 (stereo not shown) the screen gave Mtb heat-shock: 9.64%; Mtb growth Cornell: 6.087%; LdMetRS: 8.696%. CCc1ccccc1-n1nnc(C(=O)O)c1-c1ccccn1 read Mtb heat-shock: 14.58%; Mtb growth Cornell: 8.629%; LdMetRS: 14.79%. With CCCN(C)c1ncc2c(n1)N(C)CCN(CC1CC1)C2=O the screen gave Mtb heat-shock: -2.491%; Mtb growth Cornell: 17%; LdMetRS: 9.951%. Cc1nc(CN2CCN(CC(=O)Nc3c(C)cccc3C)CC2)no1 gave Mtb heat-shock: 10.64%; LdMetRS: 22.92%.

With Fc1cnc(N2CCCC3(CCN(Cc4ccoc4)C3)C2)nc1.O=C(O)C(F)(F)F.O=C(O)C(F)(F)F (stereo not shown) the screen gave Mtb heat-shock: -19.59%; Mtb growth Cornell: 27.22%. For COCCNc1ccc(CC2CCCNC2)cn1 (stereo not shown) the result was LdMetRS: 17.55%. CCc1nc(NC(=O)N(C)Cc2ccoc2)nn1C read Mtb heat-shock: -14.88%; Mtb growth Cornell: -9.761%; LdMetRS: 3.911%. For Cc1cnc(N2CCC3(CCCCN3C)C2)nc1 (stereo not shown) the result was LdMetRS: 3.333%. With CC(C)(C)n1ncc(NCC(O)c2ccc(F)c(F)c2)c(Cl)c1=O (stereo not shown) the screen gave Mtb heat-shock: 30.5%; Mtb growth Cornell: 48.87%; LdMetRS: 18.05%. Result for CN(C)C(=O)CCC1CCCN(Cc2ccc(-c3cccnc3)cc2)C1 (stereo not shown) was Mtb heat-shock: 4.254%; Mtb growth Cornell: 12.75%; LdMetRS: 11.17%. CCc1nc(C)c(C(=O)N[C@@H]2c3ccccc3C[C@@H]2O)o1 read Mtb heat-shock: -3.2%; Mtb growth Cornell: -16.17%; LdMetRS: 9.214%. O=C(Cc1ccc(O)c(F)c1)N1CCC2(CCNCC2)CC1 gave Mtb heat-shock: 6.978%; LdMetRS: 14.17%.

For Cc1nnc(CN2CCN(Cc3nccn3C)CC2)n1C the result was Mtb heat-shock: -19.05%; Mtb growth Cornell: 13.07%; LdMetRS: 9.239%. Cn1cc(C(=O)NC2CCN(C(=O)NCC3CCSCC3)CC2)cn1 gave Mtb heat-shock: -2.702%; LdMetRS: 11.81%. Result for CCS(=O)(=O)N1CCc2onc(CNc3ncccn3)c2C1 was Mtb heat-shock: -7.176%; Mtb growth Cornell: 10.15%; LdMetRS: 3.763%. For Cc1cccc(CN2C[C@@H]3CN(C(=O)c4ccsc4)C[C@@H]3C2=O)c1 the result was LdMetRS: 6.299%. C/C(Cl)=C/CNC(=O)[C@H]1CC[C@]2(CC1)CN(C)C(=O)c1ccccc1O2 gave Mtb heat-shock: -3.138%; Mtb growth Cornell: 23.96%; LdMetRS: 10.47%.

Some entries from above, unchanged:

| structure | Mtb heat-shock | Mtb growth Cornell | LdMetRS |
|---|---|---|---|
| `C/C(Cl)=C/CNC(=O)[C@H]1CC[C@]2(CC1)CN(C)C(=O)c1ccccc1O2` | -3.138% | 23.96% | 10.47% |
| `O=C(O)C(F)(F)F.O=C(O)C(F)(F)F.[H][C@@]12CN(Cc3ccncc3)C[C@]1([H])[C@@H]2CC(=O)N1CCCC1` | -28.62% | - | - |

Data taken from ChEMBL document CHEMBL3988442, “University of Dundee, Small-Polar-MMV Screening Library” (2021).